Laboratory results as given in PMC7652414.
Results are given in words; binding and its absence hold for the method and conditions named. Binding seen in cells or lysates may run through a third protein. Some entries that bind do so weakly or less than the wild type. Sequences can lack the tags named with a protein.

Molecular target: T1, FLA10-MBP (Chlamydomonas reinhardtii) (UniProt P46869)
T1 sequence: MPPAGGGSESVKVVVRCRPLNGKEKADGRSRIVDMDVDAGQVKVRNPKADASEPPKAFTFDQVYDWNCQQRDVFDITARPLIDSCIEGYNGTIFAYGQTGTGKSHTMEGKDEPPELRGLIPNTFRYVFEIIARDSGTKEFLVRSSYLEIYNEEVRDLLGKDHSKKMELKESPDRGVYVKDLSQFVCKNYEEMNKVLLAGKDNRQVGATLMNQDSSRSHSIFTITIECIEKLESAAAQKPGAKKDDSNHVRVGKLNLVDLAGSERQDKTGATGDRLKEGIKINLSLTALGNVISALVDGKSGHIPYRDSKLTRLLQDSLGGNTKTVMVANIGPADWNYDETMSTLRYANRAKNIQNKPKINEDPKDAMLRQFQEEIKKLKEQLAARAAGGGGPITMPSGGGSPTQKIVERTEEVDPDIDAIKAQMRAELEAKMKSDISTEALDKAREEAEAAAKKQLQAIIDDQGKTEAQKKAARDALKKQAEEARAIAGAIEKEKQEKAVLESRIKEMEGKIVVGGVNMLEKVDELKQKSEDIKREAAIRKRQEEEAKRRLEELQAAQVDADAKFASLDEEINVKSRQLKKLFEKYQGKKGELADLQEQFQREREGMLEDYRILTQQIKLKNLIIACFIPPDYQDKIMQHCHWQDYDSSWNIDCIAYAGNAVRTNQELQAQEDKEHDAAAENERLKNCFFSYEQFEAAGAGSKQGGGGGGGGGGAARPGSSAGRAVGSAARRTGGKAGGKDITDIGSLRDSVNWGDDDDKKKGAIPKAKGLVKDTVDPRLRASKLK
Assay: pull-down; co-purification of FLA10-MBP/FLA8-RFP from Sf9 lysate on an MBP (amylose) column; Coomassie-stained SDS-PAGE

B1: FLA8-RFP (protein, UniProt A7LGV1 1-768)
chain: MASGGECVKVAVRCRPLNGKEKGDNRATIVEVDNKTGQVTLNNPKGDEPPKTFTFDNAFDWNVTQRDVYDVVARPIVNSVMDGYNGTIFAYGQTGTGKTHTMEGFPTPELQGIIPNCFDHVFETVNSSTGKQWMVRASYLEIYNEEVRDLLSKDPKNKLELKEHKDSGVYVKGLNAFVVKGVPELKNVLEVGKKNRSVGATLMNQDSSRSHSIFTITIETIEQTQAQPEGHIRVGKLNLVDLAGSERQSKTGATGDRLKEATKINLSLSALGNVISALVDGKSGHVPYRDSKLTRLLQDSLGGNTKTIMCANMGPADWNYDETLSTLRYANRAKNIKNKPKINEDPKDAMLREFQDEIARLKAALEAEGGALPEGFATGPGGEIIVEKVVQVPKALDASFLEQMRKDMEEQMKKELASQQAAALNDEQLQKVKEEAAAKAKAEAARLEEEKKKAEEEAARMQRKQQKIKAEMDKKSLDAEQIRAEKEALAKKLKAMESKILKGDQAGGLAEVTKKKEEELKRKEQELERRRKEEEEQRKKIQVMEEQQLAMEDKYKDKADEADQKTKKLKKLWKKFQEVNAEVEDMYKEFQREKEDLLESIRMLQDQMQLKDMVIEAFIPPEEVQKVMKRAHWDDEREVWVLERLSDIGKRETAQGASRRPVSASGQRRPTSDFAKLANAMGDMNPRFKSENILNLELDLPERTTYDYEGPGVDPRVQAAINAAFAEDGELIFVGSEQNVHLGDASAAAARPDSAKKRPASARKGTKK
In the case of B1, the binding is reported as “binds”.
